Source: patent publication US20260315563A1, “A NOVEL MENTHOL-EUCALYPTUS OIL ANTITUSSIVE SPRAY AND USE THEREOF” (SINO-SHINE BIOPHARMACEUTICAL CO.,LTD, priority 2023, published 2026)
For at least one compound, name, drawing or mass did not settle the structure.

Experiments:
[1] = system: sodium citrate-evoked coughs; test: Animal Experiment 1: antitussive effect in sodium citrate (citric acid)-evoked cough, guinea pigs; type: in vivo; details: 2% menthol, 3.6% eucalyptus oil, combinations, or 30 mg/mL codeine phosphate; P<0.01
Description: 100 guinea pigs, 250 g to 300 g each, half-male and half-female, were purchased from Beijing Vital River Experimental Animal Technology Co., Ltd., referred to Certificate Numbers 110011220104932418, 110011220104932542. The animals were reared at the general laboratory facility with 40% to 60% of humidity, and provided with a cycle of light: 12 h in dark and 12 h in light. The animals could freely access to water and food. All operations and experimental procedures complied with the “Regulations on Animal Experiment Management.”
At the initial screening step, each guinea pig was individually placed in a glass bell jar to allow adaptation for 1 min and then administered with a compressed aerosol of 0.4 M citric acid solution (instead of physiological saline for the blank control group) for 10 min. The frequency of cough was recorded during administration of the aerosol. […] After an interval of 10 min post-inhalation of the test drug, 0.4 M citric acid solution was nebulized and given for inhalation, and the cough frequency was recorded by video from the beginning to the end of the administration of citric acid aerosol. […] The videos were recorded during the period of cough provocation in the experiment. […]
All experimental data were expressed as mean±SEM, and the data-processing software SSPS16.0 was used to conduct the analysis of variance and inter-group t-test. […]

[2] = system: cough induction using LPS and citric acid; test: Animal Experiment 2: antitussive effect in LPS-citric acid cough model (inflammatory cough), guinea pigs; type: in vivo
Description: 160 guinea pigs, 250 g to 300 g each, half-male and half-female, certificate number 20220908Cdzz0412999409, were purchased from Xinjian Rabbit Farm, Dashiju Town, Xinchang County. The animals were reared at the general laboratory facility with 40% to 60% of humidity, and provided with a cycle of 12 h in the dark and 12 h in light. The animals could freely access to water and food. All operations and experimental procedures complied with the “Regulations on Animal Experiment Management.” • Production license: SCXK (Zhejiang) 2020-0005 • Application license: SCXK (Zhejiang) 2021-0019
Currently, there are barely reports on the models of inflammatory coughs in China and other countries. To closely mimic the occurrence of actual coughs in people suffering from acute respiratory infection, a novel inflammatory cough model was explored ahead of the projected experiments. […]
After 5 days of adaptive feeding, the animal was individually placed in a glass bell jar to allow adaptation for 1 min, and then administrated with the compressed aerosol of 0.4 M citric acid solution (instead of physiological saline for the blank control group) for 10 min. The frequency of cough was recorded during administration of the citric acid aerosol. […] Fifteen minutes later, the aerosol of 0.2 M citric acid was administered for cough induction, and the process was recorded by video during the inhalation of citric acid. […]

SMILES: COc1ccc2c3c1O[C@H]1[C@@H](O)C=C[C@H]4[C@@H](C2)N(C)CC[C@@]341 [Codeine phosphate]
- Effect on frequency of coughs / antitussive effect (in words) [1]: reduced the frequency of coughs
- Effect on latency of coughs (in words) [1]: significantly increased the latency
- Effect on latency of coughs (in words) ([2]; 30 mg/mL codeine, P<0.01, significant at 0.45% eucalyptus oil and 0.25% or 1.0% menthol + 0.15% eucalyptus oil, P<0.01-0.05 vs model): increased the latency of coughs
- Effect on frequency of coughs (in words) ([2]; menthol 0.06-4%, eucalyptus oil 0.05-0.45%, combinations 0.06-1.0% + 0.05-0.15%, codeine 30 mg/mL): significantly reduced the frequency of coughs
